The match of structure and compound is tentative.
Assays:
11β-hsd-1 enzyme [1] = target: T1, 11β-hsd-1 enzyme (Homo sapiens, UniProt P28845)
11β-hsd-1 enzyme [2] = target: T1, 11β-hsd-1 enzyme; conditions: Table 1; inhibitor 0.1 μM

Amino acid sequences for entries named in this document (tags omitted).
UniProt P28845, whole entry: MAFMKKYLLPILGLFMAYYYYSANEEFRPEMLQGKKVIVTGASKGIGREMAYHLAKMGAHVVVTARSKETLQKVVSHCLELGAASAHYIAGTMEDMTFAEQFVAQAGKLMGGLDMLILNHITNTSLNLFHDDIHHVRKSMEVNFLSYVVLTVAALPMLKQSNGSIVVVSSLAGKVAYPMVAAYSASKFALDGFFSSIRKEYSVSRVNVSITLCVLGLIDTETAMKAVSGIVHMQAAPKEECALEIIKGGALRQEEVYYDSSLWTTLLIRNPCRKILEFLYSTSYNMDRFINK

## Nc1cccc(NS(=O)(=O)N2CCC(c3ccc(Cl)cc3)CC2)n1
11β-hsd-1 enzyme [1]
  Ki: < 1 nM
11β-hsd-1 enzyme [2]
  % Inh @ 0.1 μM: 62%

## Cc1cc(N)nc(NS(=O)(=O)N2CCN(c3ccc(C#N)cn3)[C@H](C)C2)c1
11β-hsd-1 enzyme [1]
  Ki: 2 nM
11β-hsd-1 enzyme [2]
  % Inh @ 0.1 μM: 100%

— patent US20070027118A1 (priority 2005, published 2007)
